In PMC6686130:
The exact form of at least one protein or probe is not confirmed. A negative result means that nothing was seen under these conditions.

Test system: GST-bZIP73Jap (Oryza sativa (japonica allele))
Test: EMSA
Details: Chemiluminescent EMSA kit (Thermo); pH and temperature not stated; recombinant protein; protein details: GST (pGEX4T-3)

TGTACACTGATCTTGTGCTATAGCCTATAGGACGTGCCATACAGTACGAAAAATATCATTTTATATTTTC (double strand) [OsMST8 promoter G-box probe]
binding result: binds

GGACGGGCGTCGCTCGCGCGGCGGTTCACGTGGCGGCTAGCAGAGCGCCCGCACGCGGGTGGGCGCGAGC (double strand) [OsINV4 promoter G-box probe]
binding result: binds

TTGAAAAAATAATGGGTAGAAAAAACTATCAATTATACGTGACGAAACATTGAGATATATGTATTAGAGA (double strand) [OsMST7 promoter G-box probe]
binding result: binds

GGACGGGCGTCGCTCGCGCGGCGGTTCAAGGCGCGGCTAGCAGAGCGCCCGCACGCGGGTGGGCGCGAGC (double strand) [OsINV4(MG) probe]
binding result: no binding

TGTACACTGATCTTGTGCTATAGCCTATAGGAAAAGCCATACAGTACGAAAAATATCATTTTATATTTTC (double strand) [OsMST8(MG) probe]
binding result: no binding

TTGAAAAAATAATGGGTAGAAAAAACTATCAATTATAAAAGACGAAACATTGAGATATATGTATTAGAGA (double strand) [OsMST7(MG) probe]
binding result: no binding
